Measurements as given in the supplement of paper PMC12067093, “Discovery and optimisation of a covalent ligand for TRIM25 and its application to targeted protein ubiquitination” (Chemical Science, 2025).
This is one part of the list.

Protein sequences, listed by entry. Tags and fused reporters are not part of them. Lines headed by an entry give the natural chain unless they say otherwise; changes in a name come on top.
UniProt P52701: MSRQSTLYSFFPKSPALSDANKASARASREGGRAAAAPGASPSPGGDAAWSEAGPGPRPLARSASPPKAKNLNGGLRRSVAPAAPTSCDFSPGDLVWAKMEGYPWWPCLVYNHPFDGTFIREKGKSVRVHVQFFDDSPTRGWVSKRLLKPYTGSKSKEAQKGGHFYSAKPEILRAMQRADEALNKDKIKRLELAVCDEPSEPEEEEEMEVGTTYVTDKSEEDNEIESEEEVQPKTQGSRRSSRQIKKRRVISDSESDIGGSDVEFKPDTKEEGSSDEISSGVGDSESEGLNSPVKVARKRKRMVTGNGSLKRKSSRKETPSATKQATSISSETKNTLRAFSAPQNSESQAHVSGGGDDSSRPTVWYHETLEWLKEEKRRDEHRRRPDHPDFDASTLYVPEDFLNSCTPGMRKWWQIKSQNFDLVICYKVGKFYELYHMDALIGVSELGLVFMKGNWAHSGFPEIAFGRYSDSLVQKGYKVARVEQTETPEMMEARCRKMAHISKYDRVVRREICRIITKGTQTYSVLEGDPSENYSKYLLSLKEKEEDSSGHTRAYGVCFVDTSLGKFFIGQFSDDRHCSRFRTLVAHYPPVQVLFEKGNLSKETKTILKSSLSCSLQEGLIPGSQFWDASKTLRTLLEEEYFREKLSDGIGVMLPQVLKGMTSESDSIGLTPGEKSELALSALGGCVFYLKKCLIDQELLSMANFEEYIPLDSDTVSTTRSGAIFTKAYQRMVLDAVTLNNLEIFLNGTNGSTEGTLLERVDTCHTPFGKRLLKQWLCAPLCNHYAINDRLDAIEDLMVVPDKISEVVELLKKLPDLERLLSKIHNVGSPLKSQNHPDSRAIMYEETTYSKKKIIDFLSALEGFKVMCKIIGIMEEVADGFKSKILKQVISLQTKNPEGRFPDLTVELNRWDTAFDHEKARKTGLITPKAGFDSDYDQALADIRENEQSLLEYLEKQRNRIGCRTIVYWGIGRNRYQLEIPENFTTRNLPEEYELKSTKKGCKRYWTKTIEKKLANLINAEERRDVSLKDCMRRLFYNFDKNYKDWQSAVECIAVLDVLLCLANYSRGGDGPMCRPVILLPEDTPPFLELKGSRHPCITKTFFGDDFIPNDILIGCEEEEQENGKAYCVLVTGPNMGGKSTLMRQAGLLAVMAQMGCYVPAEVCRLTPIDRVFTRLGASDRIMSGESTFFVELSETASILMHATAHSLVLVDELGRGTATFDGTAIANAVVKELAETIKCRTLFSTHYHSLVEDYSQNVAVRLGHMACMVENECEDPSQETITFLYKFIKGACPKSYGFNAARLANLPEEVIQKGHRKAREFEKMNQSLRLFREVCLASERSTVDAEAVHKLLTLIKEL
UniProt P49914: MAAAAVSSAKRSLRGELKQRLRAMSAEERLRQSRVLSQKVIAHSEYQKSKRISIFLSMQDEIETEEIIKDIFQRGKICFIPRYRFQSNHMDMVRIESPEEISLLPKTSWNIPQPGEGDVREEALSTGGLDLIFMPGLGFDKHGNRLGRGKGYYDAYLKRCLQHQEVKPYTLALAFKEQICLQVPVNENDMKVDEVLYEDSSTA
UniProt P43246, whole entry, looked up: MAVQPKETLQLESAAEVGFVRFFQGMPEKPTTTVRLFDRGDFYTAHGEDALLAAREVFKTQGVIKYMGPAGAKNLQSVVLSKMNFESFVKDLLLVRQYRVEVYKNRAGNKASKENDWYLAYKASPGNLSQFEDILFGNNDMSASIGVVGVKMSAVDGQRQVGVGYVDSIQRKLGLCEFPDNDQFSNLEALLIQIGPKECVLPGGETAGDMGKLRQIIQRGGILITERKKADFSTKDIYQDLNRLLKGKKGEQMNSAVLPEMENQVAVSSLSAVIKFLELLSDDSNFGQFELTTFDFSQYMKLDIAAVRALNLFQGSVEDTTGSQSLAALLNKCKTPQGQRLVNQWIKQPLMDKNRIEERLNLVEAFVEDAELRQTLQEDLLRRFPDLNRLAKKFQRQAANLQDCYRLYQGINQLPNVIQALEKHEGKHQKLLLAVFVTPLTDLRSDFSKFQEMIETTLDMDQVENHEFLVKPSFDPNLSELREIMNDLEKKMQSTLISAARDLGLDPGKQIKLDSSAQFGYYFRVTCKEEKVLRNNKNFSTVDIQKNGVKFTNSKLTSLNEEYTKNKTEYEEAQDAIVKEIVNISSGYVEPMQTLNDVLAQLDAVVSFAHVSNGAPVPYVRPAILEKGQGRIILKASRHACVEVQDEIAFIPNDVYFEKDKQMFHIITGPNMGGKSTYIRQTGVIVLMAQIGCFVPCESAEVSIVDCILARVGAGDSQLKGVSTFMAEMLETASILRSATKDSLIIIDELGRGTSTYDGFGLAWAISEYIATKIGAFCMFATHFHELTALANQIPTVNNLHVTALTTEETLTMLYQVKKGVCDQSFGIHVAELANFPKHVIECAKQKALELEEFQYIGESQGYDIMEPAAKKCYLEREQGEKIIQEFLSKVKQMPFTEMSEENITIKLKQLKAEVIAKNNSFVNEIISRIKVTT
UniProt Q99836, whole entry, looked up: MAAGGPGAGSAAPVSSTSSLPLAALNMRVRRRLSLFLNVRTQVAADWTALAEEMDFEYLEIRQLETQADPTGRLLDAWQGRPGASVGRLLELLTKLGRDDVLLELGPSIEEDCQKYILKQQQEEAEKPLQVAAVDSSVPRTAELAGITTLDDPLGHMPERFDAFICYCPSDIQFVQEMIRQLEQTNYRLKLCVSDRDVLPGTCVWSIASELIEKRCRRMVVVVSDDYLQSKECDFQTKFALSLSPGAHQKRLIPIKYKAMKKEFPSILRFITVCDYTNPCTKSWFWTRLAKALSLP
UniProt Q13496: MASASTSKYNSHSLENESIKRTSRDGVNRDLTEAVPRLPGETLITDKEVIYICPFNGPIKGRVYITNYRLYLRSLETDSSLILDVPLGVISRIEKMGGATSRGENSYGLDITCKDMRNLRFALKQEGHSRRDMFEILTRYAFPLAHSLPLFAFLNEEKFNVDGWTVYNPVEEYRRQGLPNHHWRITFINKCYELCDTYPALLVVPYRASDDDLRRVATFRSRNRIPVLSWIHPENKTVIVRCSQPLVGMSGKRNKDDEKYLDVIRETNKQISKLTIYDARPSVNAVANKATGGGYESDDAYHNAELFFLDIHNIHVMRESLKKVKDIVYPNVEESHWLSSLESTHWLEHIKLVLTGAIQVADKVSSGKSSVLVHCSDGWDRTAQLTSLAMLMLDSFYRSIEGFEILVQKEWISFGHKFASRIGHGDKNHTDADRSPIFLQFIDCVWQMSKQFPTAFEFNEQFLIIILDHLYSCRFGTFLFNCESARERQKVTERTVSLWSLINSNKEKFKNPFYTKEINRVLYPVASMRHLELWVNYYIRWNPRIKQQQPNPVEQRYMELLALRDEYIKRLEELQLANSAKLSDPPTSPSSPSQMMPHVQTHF
UniProt Q9NVV4: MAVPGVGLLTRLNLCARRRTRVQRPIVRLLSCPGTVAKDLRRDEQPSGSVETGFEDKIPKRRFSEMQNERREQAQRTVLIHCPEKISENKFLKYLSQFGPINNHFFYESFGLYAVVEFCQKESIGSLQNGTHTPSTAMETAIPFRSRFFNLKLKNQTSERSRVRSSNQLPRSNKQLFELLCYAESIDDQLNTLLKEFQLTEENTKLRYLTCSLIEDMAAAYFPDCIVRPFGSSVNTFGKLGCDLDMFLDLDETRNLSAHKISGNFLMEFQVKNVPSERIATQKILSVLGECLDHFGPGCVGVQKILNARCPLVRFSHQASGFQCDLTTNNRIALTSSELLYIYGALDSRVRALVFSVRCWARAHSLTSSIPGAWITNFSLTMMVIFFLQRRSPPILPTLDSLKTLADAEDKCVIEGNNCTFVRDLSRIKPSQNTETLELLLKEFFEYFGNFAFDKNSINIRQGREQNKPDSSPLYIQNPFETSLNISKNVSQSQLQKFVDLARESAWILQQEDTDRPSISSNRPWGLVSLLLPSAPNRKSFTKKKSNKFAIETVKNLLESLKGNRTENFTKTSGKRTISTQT
UniProt O75570: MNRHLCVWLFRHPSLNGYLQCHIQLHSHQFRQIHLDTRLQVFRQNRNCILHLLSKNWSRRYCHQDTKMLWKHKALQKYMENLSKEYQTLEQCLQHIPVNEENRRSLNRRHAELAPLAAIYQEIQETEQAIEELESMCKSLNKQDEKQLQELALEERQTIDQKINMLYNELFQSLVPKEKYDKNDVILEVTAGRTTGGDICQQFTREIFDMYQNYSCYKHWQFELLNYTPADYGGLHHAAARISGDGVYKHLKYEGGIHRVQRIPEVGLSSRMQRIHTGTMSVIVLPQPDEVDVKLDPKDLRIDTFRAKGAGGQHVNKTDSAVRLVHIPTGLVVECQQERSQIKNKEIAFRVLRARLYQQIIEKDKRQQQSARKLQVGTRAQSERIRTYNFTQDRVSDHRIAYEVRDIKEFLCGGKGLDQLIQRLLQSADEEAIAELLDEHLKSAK
UniProt P53602: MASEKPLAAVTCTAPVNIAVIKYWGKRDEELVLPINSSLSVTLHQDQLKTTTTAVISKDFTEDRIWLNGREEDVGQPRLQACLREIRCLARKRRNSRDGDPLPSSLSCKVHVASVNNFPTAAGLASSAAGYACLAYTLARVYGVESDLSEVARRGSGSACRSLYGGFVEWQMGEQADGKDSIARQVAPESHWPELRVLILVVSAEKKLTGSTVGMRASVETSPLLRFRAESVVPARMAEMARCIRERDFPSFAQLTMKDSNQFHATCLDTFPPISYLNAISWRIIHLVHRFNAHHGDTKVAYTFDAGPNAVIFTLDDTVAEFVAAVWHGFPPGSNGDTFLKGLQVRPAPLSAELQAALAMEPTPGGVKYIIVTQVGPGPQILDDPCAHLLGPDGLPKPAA
UniProt O94776: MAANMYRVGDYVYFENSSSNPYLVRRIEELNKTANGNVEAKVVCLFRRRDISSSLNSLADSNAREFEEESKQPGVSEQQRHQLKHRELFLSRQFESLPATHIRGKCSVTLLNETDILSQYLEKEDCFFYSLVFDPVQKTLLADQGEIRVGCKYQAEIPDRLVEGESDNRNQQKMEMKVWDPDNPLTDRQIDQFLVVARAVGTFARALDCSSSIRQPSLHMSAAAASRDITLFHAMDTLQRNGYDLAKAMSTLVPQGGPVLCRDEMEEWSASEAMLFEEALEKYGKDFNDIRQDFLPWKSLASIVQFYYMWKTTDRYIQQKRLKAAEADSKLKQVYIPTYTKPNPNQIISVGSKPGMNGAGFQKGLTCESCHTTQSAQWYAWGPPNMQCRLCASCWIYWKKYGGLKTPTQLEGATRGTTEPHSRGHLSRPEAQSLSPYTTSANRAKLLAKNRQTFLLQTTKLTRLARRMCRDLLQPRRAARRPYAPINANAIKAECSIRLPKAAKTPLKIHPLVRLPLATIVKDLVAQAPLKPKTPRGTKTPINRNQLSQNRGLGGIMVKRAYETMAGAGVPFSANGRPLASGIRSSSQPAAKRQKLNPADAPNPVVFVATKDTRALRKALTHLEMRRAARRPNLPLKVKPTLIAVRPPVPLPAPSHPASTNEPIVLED
UniProt Q15390: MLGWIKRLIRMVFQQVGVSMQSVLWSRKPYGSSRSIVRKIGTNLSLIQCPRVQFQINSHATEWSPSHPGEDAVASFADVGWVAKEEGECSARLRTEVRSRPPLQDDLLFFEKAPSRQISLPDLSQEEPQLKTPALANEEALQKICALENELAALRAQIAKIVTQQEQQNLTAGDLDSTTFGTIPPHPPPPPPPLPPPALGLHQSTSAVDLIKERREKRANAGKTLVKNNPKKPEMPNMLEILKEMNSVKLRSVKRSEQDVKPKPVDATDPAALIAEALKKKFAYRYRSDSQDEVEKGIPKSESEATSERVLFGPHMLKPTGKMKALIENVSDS
UniProt Q9BTC8: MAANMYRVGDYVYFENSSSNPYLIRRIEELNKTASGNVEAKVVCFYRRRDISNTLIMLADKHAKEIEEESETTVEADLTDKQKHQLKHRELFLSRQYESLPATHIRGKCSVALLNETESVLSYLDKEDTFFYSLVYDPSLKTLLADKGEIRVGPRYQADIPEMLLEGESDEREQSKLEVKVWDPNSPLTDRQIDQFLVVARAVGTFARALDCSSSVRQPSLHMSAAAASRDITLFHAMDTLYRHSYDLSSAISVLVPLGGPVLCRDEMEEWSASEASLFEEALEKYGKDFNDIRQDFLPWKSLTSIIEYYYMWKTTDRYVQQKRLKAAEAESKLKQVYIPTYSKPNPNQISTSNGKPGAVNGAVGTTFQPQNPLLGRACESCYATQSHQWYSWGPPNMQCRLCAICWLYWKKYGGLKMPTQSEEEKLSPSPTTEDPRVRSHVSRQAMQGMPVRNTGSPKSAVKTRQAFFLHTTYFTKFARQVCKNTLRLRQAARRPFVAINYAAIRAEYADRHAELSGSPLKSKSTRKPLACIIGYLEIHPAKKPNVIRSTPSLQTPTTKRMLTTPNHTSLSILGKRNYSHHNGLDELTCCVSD

Compound: CC1Cc2ccccc2N1C(=O)C1CCCN(C1)C(=O)CCl (mixture of isomers) [TRIM25 ligand 11 (diastereomer mixture)]
Experiment: probe-labelled cysteine peptide fold change vs DMSO (competition) (log2 fold change); higher = less target engagement (more negative = stronger competition)
Settings: THP-1, incubation time: 4 h
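Further: competitive chemoproteomic profiling in live THP-1 cells with an iodoacetamide desthiobiotin (IA-DTB) probe, comparing probe-labelled peptide intensities in compound-treated cells against DMSO-treated controls.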

Target	probe-labelled cysteine peptide fold change (10 µM)	probe-labelled cysteine peptide fold change (50 µM)
MTREX_P42285_983_LEIDEETYLSSFKPHLMDVVYTWATGATFAHICK (UniProt P42285)	0.115	-0.0469
MTMR3_Q13615_188_LCGSYPQELIVPAWITDK (UniProt Q13615)	0.105	0.265
MSH6_P52701_765_VDTCHTPFGK (UniProt P52701)	0.0647	0.104
MTHFS_P49914_180_EQICLQVPVNENDMK (UniProt P49914)	-0.00999	
MTREX_P42285_650_YCLPFLQPGR (UniProt P42285)	0.0675	0.187
MSH2_P43246_199_ECVLPGGETAGDMGK (UniProt P43246)	0.0606	-0.0735
MYD88_Q99836_203_LCVSDRDVLPGTCVWSIASELIEK (UniProt Q99836)	0.12	0.108
MUL1_Q969V5_62_CVPYAVIEGAVR (UniProt Q969V5)	0.00708	-0.0529
MTM1_Q13496_242_CSQPLVGMSGK (UniProt Q13496)	-0.0613	0.0204
MTPAP_Q9NVV4_242_LGCDLDMFLDLDETR (UniProt Q9NVV4)	-0.0839	-0.14
MRTO4_Q9UKD2_176_GVVTLLSDYEVCK (UniProt Q9UKD2)	0.0418	-0.0161
MSH6_P52701_783_QWLCAPLCNHYAINDRLDAIEDLMVVPDK (UniProt P52701)	0.182	-0.0199
MTREX_P42285_430_MVEEVFSNAIDCLSDEDK (UniProt P42285)	0.0384	-0.00135
MYCBP2_O75592_4406+4413_NEEHCLPCLHGCDK (UniProt O75592)	-0.0669	
MTRF1_O75570_335_LVHIPTGLVVECQQER (UniProt O75570)	0.297	-0.12
MVD_P53602_108_DGDPLPSSLSCK (UniProt P53602)	-0.000184	-0.0426
MTA1_Q13330_68_HATLSVCYK (UniProt Q13330)	0.0469	-0.125
MTA2_O94776_126_EDCFFYSLVFDPVQK (UniProt O94776)	0.0909	0.0304
MRPS27_Q92552_101_HSPNCWYLR (UniProt Q92552)	0.0385	-0.00466
MYCBP2_O75592_4356_EHTGKPTTSSSEACR (UniProt O75592)	-0.0372	-0.0921

Record cards (already shown). Order of values: probe-labelled cysteine peptide fold change (10 µM)	probe-labelled cysteine peptide fold change (50 µM)
MVD_P53602_108_DGDPLPSSLSCK (UniProt P53602) as listed: -0.000184	-0.0426
MTM1_Q13496_242_CSQPLVGMSGK (UniProt Q13496) as listed: -0.0613	0.0204
MRPS27_Q92552_101_HSPNCWYLR (UniProt Q92552) as listed: 0.0385	-0.00466

Continuation:

Target	probe-labelled cysteine peptide fold change (10 µM)	probe-labelled cysteine peptide fold change (50 µM)
MSH2_P43246_404_QAANLQDCYR (UniProt P43246)	-0.0257	0.0523
MRPS10_P82664_142_CLELEHLTGSTADVYLEYIQR (UniProt P82664)	0.185	0.0322
MYCBP2_O75592_3364_ANALFLLSLSSAAEPSILCYHPAK (UniProt O75592)	0.0224	0.0186
MTA2_O94776_209_ALDCSSSIR (UniProt O94776)	-0.025	
MTM1_Q13496_242_CSQPLVGMSGKR (UniProt Q13496)	-0.862	-0.255
MTFR1_Q15390_89_EEGECSAR (UniProt Q15390)	-0.0644	0.0224
MYH11_P35749_95_VEDMAELTCLNEASVLHNLR (UniProt P35749)	0.36	-0.349
MTR_Q99707_1081_DSASTEPYYCLSDFIAPLHSGIR (UniProt Q99707)	0.0326	0.0181
MTFMT_Q96DP5_365_NSQAQPSQCR (UniProt Q96DP5)	-0.0914	-0.109
MTHFD1_P11586_236_GEWIKPGAIVIDCGINYVPDDKKPNGR (UniProt P11586)	-0.357	-0.226
MTERF4_Q7Z6M4_69_SNNYVQEPECR (UniProt Q7Z6M4)	0.00817	-0.179
MYCBP2_O75592_3632_VCEHPLSDIVIAGEAAHPLPHTFHR (UniProt O75592)	-0.0436	0.143
MTHFD1L_Q6UB35_906_IDRYTQQGFGNLPICMAK (UniProt Q6UB35)	-0.0975	-0.217
MTA3_Q9BTC8_109_CSVALLNETESVLSYLDK (UniProt Q9BTC8)	0.851	
MYCBP2_O75592_4233_LWLALASLCVLDQDHVDR (UniProt O75592)	-0.327	0.22
MTX2_O75431_189_TLDQVLEDVDQCCQALSQR (UniProt O75431)	-0.297	0.14
MYH10_P35580_1011_IAECSSQLAEEEEK (UniProt P35580)	-0.0841	-0.0448
MYH9_P35579_671_CIIPNHEKK (UniProt P35579)	-0.608	-0.373
MYCBP2_O75592_4638_EELPHCPAGPK (UniProt O75592)	-0.0878	-0.171
